Laboratory results: article PMC8854734
These are yes or no findings as the source states them, for the method shown. In cells and extracts the contact can be indirect. Some binding calls cover weakened binding; strength is not graded here.

By UniProt entry, the sequences of proteins in these tests, tags left out.
UniProt Q92731: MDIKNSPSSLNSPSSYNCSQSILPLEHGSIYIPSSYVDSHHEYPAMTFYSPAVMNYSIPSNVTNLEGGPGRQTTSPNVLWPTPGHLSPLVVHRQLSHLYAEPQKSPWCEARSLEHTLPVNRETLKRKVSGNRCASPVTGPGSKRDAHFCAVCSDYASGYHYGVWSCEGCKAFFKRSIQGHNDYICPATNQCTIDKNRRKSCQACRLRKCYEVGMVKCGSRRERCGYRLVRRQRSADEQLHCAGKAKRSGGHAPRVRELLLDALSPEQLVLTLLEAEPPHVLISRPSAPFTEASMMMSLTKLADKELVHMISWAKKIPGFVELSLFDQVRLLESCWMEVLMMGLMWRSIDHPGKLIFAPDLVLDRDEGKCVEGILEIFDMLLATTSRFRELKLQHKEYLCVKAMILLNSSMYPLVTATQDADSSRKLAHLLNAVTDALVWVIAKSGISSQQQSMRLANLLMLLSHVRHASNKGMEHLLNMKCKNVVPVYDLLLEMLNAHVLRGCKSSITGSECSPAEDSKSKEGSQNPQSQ
UniProt O75530: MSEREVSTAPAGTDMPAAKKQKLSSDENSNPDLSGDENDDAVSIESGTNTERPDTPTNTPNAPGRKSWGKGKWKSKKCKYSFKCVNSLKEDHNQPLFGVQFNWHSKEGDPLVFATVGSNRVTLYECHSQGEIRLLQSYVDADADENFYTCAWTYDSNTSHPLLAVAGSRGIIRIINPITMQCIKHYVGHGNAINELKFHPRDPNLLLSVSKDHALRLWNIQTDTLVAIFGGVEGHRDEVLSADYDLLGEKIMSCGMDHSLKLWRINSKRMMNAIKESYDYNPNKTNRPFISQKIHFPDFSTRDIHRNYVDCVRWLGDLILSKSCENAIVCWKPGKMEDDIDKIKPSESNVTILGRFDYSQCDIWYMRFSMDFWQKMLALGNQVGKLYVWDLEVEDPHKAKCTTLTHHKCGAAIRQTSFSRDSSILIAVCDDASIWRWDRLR
UniProt Q04206: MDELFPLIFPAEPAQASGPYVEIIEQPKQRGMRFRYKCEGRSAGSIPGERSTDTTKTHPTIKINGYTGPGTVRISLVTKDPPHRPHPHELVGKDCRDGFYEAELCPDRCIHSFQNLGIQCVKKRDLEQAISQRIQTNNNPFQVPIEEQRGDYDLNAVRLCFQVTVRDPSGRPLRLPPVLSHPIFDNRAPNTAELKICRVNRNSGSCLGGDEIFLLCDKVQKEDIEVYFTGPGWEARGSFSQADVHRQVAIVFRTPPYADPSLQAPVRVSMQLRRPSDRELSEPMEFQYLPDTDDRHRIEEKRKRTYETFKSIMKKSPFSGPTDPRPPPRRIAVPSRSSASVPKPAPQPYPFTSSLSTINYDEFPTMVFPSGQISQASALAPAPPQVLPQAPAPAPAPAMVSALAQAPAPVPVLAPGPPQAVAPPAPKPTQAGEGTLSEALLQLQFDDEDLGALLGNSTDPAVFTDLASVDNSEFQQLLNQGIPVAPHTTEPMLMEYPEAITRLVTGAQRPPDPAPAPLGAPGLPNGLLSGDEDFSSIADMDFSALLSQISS
UniProt Q15022: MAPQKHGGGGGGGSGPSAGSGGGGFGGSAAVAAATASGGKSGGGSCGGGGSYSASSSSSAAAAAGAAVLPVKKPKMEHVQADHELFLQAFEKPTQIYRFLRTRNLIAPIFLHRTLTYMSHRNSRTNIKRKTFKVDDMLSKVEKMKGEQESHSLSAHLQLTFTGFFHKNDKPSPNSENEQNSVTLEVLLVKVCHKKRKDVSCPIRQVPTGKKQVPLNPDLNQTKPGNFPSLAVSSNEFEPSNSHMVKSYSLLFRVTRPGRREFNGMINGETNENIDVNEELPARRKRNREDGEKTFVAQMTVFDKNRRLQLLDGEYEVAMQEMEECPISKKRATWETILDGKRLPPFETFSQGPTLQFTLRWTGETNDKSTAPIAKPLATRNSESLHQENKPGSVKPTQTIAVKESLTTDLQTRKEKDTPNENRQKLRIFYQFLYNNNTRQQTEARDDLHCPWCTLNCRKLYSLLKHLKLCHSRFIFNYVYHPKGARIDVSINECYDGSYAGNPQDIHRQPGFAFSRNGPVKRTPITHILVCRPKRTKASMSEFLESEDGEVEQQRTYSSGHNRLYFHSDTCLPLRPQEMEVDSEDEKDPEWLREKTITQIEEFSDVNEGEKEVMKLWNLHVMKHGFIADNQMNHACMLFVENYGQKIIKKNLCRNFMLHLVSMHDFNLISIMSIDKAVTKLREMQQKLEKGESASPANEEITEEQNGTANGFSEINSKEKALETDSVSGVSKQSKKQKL

Tests used:
[1] = target: Estrogen receptor beta (human) (UniProt Q92731); assay: co-IP; nuclear lysates of MDA-MB-231-ERβ cells treated with or without dox and vehicle or E2; 500 µg protein, immunoprecipitation overnight at 4 °C with an ERβ antibody or a p65 antibody, Protein G Dynabeads, three washes with NETN buffer, western blotting
[2] = target: Estrogen receptor beta (human) (UniProt Q92731); assay: proximity ligation; proximity-based ligation assay, named only in the discussion; cells and conditions not told
[3] = target: Estrogen receptor beta (in 293 T cells) (UniProt Q92731); assay: co-IP; 293 T cells (Supplemental Fig. 3c); conditions not given

In the case of EED (from UniProt O75530 1-441), the binding [1] is reported as “binds”.

For “NFκB/RELA (p65) (from UniProt Q04206 1-551)”, the binding [2] was “binds” and the binding [1] was “binds”.

For “NFκB/RELA (p65) (in 293 T cells) (from UniProt Q04206 1-551)”, the binding [3] was “binds”.

In the case of SUZ12 (from UniProt Q15022 1-739), the binding [1] is reported as “binds”.

B1: RELB (protein, UniProt Q01201 1-579)
chain: MLRSGPASGPSVPTGRAMPSRRVARPPAAPELGALGSPDLSSLSLAVSRSTDELEIIDEYIKENGFGLDGGQPGPGEGLPRLVSRGAASLSTVTLGPVAPPATPPPWGCPLGRLVSPAPGPGPQPHLVITEQPKQRGMRFRYECEGRSAGSILGESSTEASKTLPAIELRDCGGLREVEVTACLVWKDWPHRVHPHSLVGKDCTDGICRVRLRPHVSPRHSFNNLGIQCVRKKEIEAAIERKIQLGIDPYNAGSLKNHQEVDMNVVRICFQASYRDQQGQMRRMDPVLSEPVYDKKSTNTSELRICRINKESGPCTGGEELYLLCDKVQKEDISVVFSRASWEGRADFSQADVHRQIAIVFKTPPYEDLEIVEPVTVNVFLQRLTDGVCSEPLPFTYLPRDHDSYGVDKKRKRGMPDVLGELNSSDPHGIESKRRKKKPAILDHFLPNHGSGPFLPPSALLPDPDFFSGTVSLPGLEPPGGPDLLDDGFAYDPTAPTLFTMLDLLPPAPPHASAVVCSGGAGAVVGETPGPEPLTLDSYQAPGPGDGGTASLVGSNMFPNHYREAAFGGGLLSPGPEAT
With B1 the binding [1] was “no binding”.

B2: RELB (in 293 T cells) (protein, UniProt Q01201 1-579)
chain: B1 chain
For B2, the binding [3] was “no binding”.
